# Experimental data from the supplement of paper PMC10077471.
# In all, about 1,900 compounds were measured (“excess over highest single agent (ExcessHSA) synergy score, 6x6 matrix”: median about -83, lowest 2% from about -370 on). The list shows a part of the results.
# System: NCI-H446
# Test: excess over highest single agent (ExcessHSA) synergy score, 6x6 matrix; higher = less synergy (more negative = stronger synergy)
# Settings: 72 h; CellTiter-Glo viability
row,SMILES,excess over highest single agent
1,COc1cccc(-c2ccc(NC(=O)C3=C(C(=O)O)CCC3)c(F)c2)c1 + Cc1sc2c(c1C)C(c1ccc(Cl)cc1)=N[C@@H](CC(=O)OC(C)(C)C)c1nnc(C)n1-2 [NCGC00250412-19],-129
2,Clc1cccc(-c2nnnn2Cc2cccnc2)c1Cl + Cc1sc2c(c1C)C(c1ccc(Cl)cc1)=N[C@@H](CC(=O)OC(C)(C)C)c1nnc(C)n1-2 [NCGC00250412-19],-192
3,Cc1cc(=O)oc2cc(O)ccc12 + Cc1sc2c(c1C)C(c1ccc(Cl)cc1)=N[C@@H](CC(=O)OC(C)(C)C)c1nnc(C)n1-2 [NCGC00250412-19],-48.1
4,CC(C)N(CCNC(=O)CN1CCCC1=O)C(C)C + Cc1sc2c(c1C)C(c1ccc(Cl)cc1)=N[C@@H](CC(=O)OC(C)(C)C)c1nnc(C)n1-2 [NCGC00250412-19],21.2
5,O=C(CCCCCCNC(=O)c1cnc(N(c2ccccc2)c2ccccc2)nc1)NO + Cc1sc2c(c1C)C(c1ccc(Cl)cc1)=N[C@@H](CC(=O)OC(C)(C)C)c1nnc(C)n1-2 [NCGC00250412-19],-34.2
6,Nc1ccc(C(=O)c2cc3c(ccc4ccccc43)[nH]2)cc1 + Cc1sc2c(c1C)C(c1ccc(Cl)cc1)=N[C@@H](CC(=O)OC(C)(C)C)c1nnc(C)n1-2 [NCGC00250412-19],-275
7,COc1c(OCCCN2CCOCC2)ccc2c3n(c(=NC(=O)c4cnc(N)nc4)nc12)CCN3 + Cc1sc2c(c1C)C(c1ccc(Cl)cc1)=N[C@@H](CC(=O)OC(C)(C)C)c1nnc(C)n1-2 [NCGC00250412-19],-358
8,Clc1ccc(C(Cn2ccnc2)OCc2c(Cl)cccc2Cl)c(Cl)c1 (stereo not given) + Cc1sc2c(c1C)C(c1ccc(Cl)cc1)=N[C@@H](CC(=O)OC(C)(C)C)c1nnc(C)n1-2 [NCGC00250412-19],-42.3
9,CC(C)n1nc(-c2cc3cc(O)ccc3[nH]2)c2c(N)ncnc21 + Cc1sc2c(c1C)C(c1ccc(Cl)cc1)=N[C@@H](CC(=O)OC(C)(C)C)c1nnc(C)n1-2 [NCGC00250412-19],-326
10,O=c1cc(-c2ccc(O)cc2)oc2cc(O)cc(O)c12 + Cc1sc2c(c1C)C(c1ccc(Cl)cc1)=N[C@@H](CC(=O)OC(C)(C)C)c1nnc(C)n1-2 [NCGC00250412-19],28.9
11,C[C@H](NC(=O)c1sccc1OCc1ccc(Cl)cc1)c1ccccc1 + Cc1sc2c(c1C)C(c1ccc(Cl)cc1)=N[C@@H](CC(=O)OC(C)(C)C)c1nnc(C)n1-2 [NCGC00250412-19],-260
12,Cc1cn2c(-c3cn[nH]c3)cnc2c(Nc2ccc(C(=O)N3CCNCC3)cc2F)n1 + Cc1sc2c(c1C)C(c1ccc(Cl)cc1)=N[C@@H](CC(=O)OC(C)(C)C)c1nnc(C)n1-2 [NCGC00250412-19],-31.9
13,C[C@@H](N)[C@H]1CC[C@H](C(=O)Nc2ccncc2)CC1 + Cc1sc2c(c1C)C(c1ccc(Cl)cc1)=N[C@@H](CC(=O)OC(C)(C)C)c1nnc(C)n1-2 [NCGC00250412-19],-66.1
14,c1cnc2cc3c(cc2n1)[C@@H]1CNC[C@H]3C1 + Cc1sc2c(c1C)C(c1ccc(Cl)cc1)=N[C@@H](CC(=O)OC(C)(C)C)c1nnc(C)n1-2 [NCGC00250412-19],-83.8
15,CN1CC[C@H](c2c(O)cc(O)c3c(=O)cc(-c4ccccc4Cl)oc23)[C@H](O)C1 + Cc1sc2c(c1C)C(c1ccc(Cl)cc1)=N[C@@H](CC(=O)OC(C)(C)C)c1nnc(C)n1-2 [NCGC00250412-19],-258
16,Fc1ccc(C(OCCN2CCN(CCCc3ccccc3)CC2)c2ccc(F)cc2)cc1 + Cc1sc2c(c1C)C(c1ccc(Cl)cc1)=N[C@@H](CC(=O)OC(C)(C)C)c1nnc(C)n1-2 [NCGC00250412-19],-135
17,Nc1nc(Cl)nc2c1ncn2[C@@H]1O[C@H](CO)[C@@H](O)[C@@H]1F + Cc1sc2c(c1C)C(c1ccc(Cl)cc1)=N[C@@H](CC(=O)OC(C)(C)C)c1nnc(C)n1-2 [NCGC00250412-19],-267
18,CC(N[C@H]1C[C@H]1c1ccccc1)c1ccc2c(c1)OCCO2 (stereo not given in full) + Cc1sc2c(c1C)C(c1ccc(Cl)cc1)=N[C@@H](CC(=O)OC(C)(C)C)c1nnc(C)n1-2 [NCGC00250412-19],-66.8
19,O=C1CN2Cc3c(ccc(Cl)c3Cl)N=C2N1 + Cc1sc2c(c1C)C(c1ccc(Cl)cc1)=N[C@@H](CC(=O)OC(C)(C)C)c1nnc(C)n1-2 [NCGC00250412-19],-40.1
20,CC(C)NCC(O)COc1ccc(COCCOC(C)C)cc1 (stereo not given) + Cc1sc2c(c1C)C(c1ccc(Cl)cc1)=N[C@@H](CC(=O)OC(C)(C)C)c1nnc(C)n1-2 [NCGC00250412-19],-77.4
21,C=C(C)[C@H]1Cc2c(ccc3c2O[C@@H]2COc4cc(OC)c(OC)cc4[C@@H]2C3=O)O1 + Cc1sc2c(c1C)C(c1ccc(Cl)cc1)=N[C@@H](CC(=O)OC(C)(C)C)c1nnc(C)n1-2 [NCGC00250412-19],-153
22,CN(C)Cc1c(C(=O)NCCOc2ccc(C(=O)NO)cc2)oc2ccccc12 + Cc1sc2c(c1C)C(c1ccc(Cl)cc1)=N[C@@H](CC(=O)OC(C)(C)C)c1nnc(C)n1-2 [NCGC00250412-19],-152
23,COC(=O)C1=CCCN(C)C1 + Cc1sc2c(c1C)C(c1ccc(Cl)cc1)=N[C@@H](CC(=O)OC(C)(C)C)c1nnc(C)n1-2 [NCGC00250412-19],-172
24,CC[C@H]1OC(=O)[C@H](C)[C@@H](O[C@H]2C[C@@](C)(OC)[C@@H](O)[C@H](C)O2)[C@H](C)[C@@H](O[C@@H]2O[C@H](C)C[C@H](N(C)C)[C@H]2O)[C@](C)(O)C[C@@H](C)/C(=N\OCOCCOC)[C@H](C)[C@@H](O)[C@]1(C)O + Cc1sc2c(c1C)C(c1ccc(Cl)cc1)=N[C@@H](CC(=O)OC(C)(C)C)c1nnc(C)n1-2 [NCGC00250412-19],-180
25,O=C(NCCS(=O)(=O)c1ccc(C(F)(F)F)cn1)c1ccc(Cl)cc1 + Cc1sc2c(c1C)C(c1ccc(Cl)cc1)=N[C@@H](CC(=O)OC(C)(C)C)c1nnc(C)n1-2 [NCGC00250412-19],83.6

# Seven consecutive records out of the list so far, quoted:
row,SMILES,excess over highest single agent
10,O=c1cc(-c2ccc(O)cc2)oc2cc(O)cc(O)c12 + Cc1sc2c(c1C)C(c1ccc(Cl)cc1)=N[C@@H](CC(=O)OC(C)(C)C)c1nnc(C)n1-2 [NCGC00250412-19],28.9
11,C[C@H](NC(=O)c1sccc1OCc1ccc(Cl)cc1)c1ccccc1 + Cc1sc2c(c1C)C(c1ccc(Cl)cc1)=N[C@@H](CC(=O)OC(C)(C)C)c1nnc(C)n1-2 [NCGC00250412-19],-260
12,Cc1cn2c(-c3cn[nH]c3)cnc2c(Nc2ccc(C(=O)N3CCNCC3)cc2F)n1 + Cc1sc2c(c1C)C(c1ccc(Cl)cc1)=N[C@@H](CC(=O)OC(C)(C)C)c1nnc(C)n1-2 [NCGC00250412-19],-31.9
13,C[C@@H](N)[C@H]1CC[C@H](C(=O)Nc2ccncc2)CC1 + Cc1sc2c(c1C)C(c1ccc(Cl)cc1)=N[C@@H](CC(=O)OC(C)(C)C)c1nnc(C)n1-2 [NCGC00250412-19],-66.1
14,c1cnc2cc3c(cc2n1)[C@@H]1CNC[C@H]3C1 + Cc1sc2c(c1C)C(c1ccc(Cl)cc1)=N[C@@H](CC(=O)OC(C)(C)C)c1nnc(C)n1-2 [NCGC00250412-19],-83.8
15,CN1CC[C@H](c2c(O)cc(O)c3c(=O)cc(-c4ccccc4Cl)oc23)[C@H](O)C1 + Cc1sc2c(c1C)C(c1ccc(Cl)cc1)=N[C@@H](CC(=O)OC(C)(C)C)c1nnc(C)n1-2 [NCGC00250412-19],-258
16,Fc1ccc(C(OCCN2CCN(CCCc3ccccc3)CC2)c2ccc(F)cc2)cc1 + Cc1sc2c(c1C)C(c1ccc(Cl)cc1)=N[C@@H](CC(=O)OC(C)(C)C)c1nnc(C)n1-2 [NCGC00250412-19],-135
